# Measured values as given in the supplement of paper PMC12823440, “Inhibitors supercharge kinase turnover through native proteolytic circuits” (Nature, 2025).
# Some of the results follow. The calls rarely recur for the same compound in another form.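 Kinases were expressed as nanoluciferase fusions in K562 cells and luminescence was read every 4 h between 2 and 18 h as percent of control, DMSO set to 100% and a positive control to 0%. A time point counts as decreased when the signal drops significantly (2 sigma). The hit call is the authors' own, does not follow from the count of time points alone, and its rule is not shown.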
# Target: EGFR_G719S (UniProt P00533)
# Assay: number of time points (of 5) at which kinase-Nluc abundance scored as decreased, DMSO-normalised (count); higher = more persistent destabilization
# Conditions: K562; 2-18 h
row,SMILES,number of time points
1,Cc1ccc(-c2ncn(-c3ccc(Nc4nccc(-c5cccc(N6CCOCC6)c5)n4)cc3)n2)cn1 (10 µM),0
2,CC[C@@H]1[C@H](F)C(=O)N[C@@H]1COc1nccc2cc(C(N)=O)c(OC)cc12 (10 µM),0
3,O=C1NC(=O)/C(=C/c2ccc(-c3ccc(F)cc3O)o2)S1 (10 µM),0
4,Cc1cc(Nc2cc(CN3CCOCC3)c3nc(C)c(Cc4ccc(Cl)cc4F)n3n2)n[nH]1 [Gandotinib] (2.5 µM),0
5,CN(C)C(=O)c1ccc(S(=O)(=O)c2ccc(NC(=O)[C@@](C)(O)C(F)(F)F)c(Cl)c2)cc1 (10 µM),0
6,CCc1cccc(CC)c1NC(=O)c1nn(C)c2c1CCc1cnc(Nc3ccc(C(=O)NC4CCN(C)CC4)cc3OC(F)(F)F)nc1-2 (2 µM),0
7,O=C(Nc1ccc(Cl)cc1)C1CCCN(C(=O)c2cccc(-c3ccco3)c2)C1 (stereo not drawn) (2.5 µM),0
8,CN(C)Cc1cccc(N=C(c2ccccc2)c2c(O)[nH]c3cc(C(=O)N(C)C)ccc23)c1 (10 µM),0
9,OCCN(CCO)c1ccc(C(c2ccc(Cl)cc2)c2ccc(N(CCO)CCO)cc2)cc1 (10 µM),3
10,CCOc1ccccc1C=C1C(=O)Nc2ccccc21 (10 µM),0
11,COc1ncc(Nc2ncc([C@@H](C)N3CCN(S(C)(=O)=O)CC3)cc2-c2nc(C)nc(N)n2)cc1F (10 µM),0
12,O=C(CO)N1CCC(c2n[nH]c(-c3ccc(Cl)cc3)c2-c2ccncn2)CC1 (10 µM),0
13,Cn1ncc(Cl)c1-c1cc(C(=O)N[C@H](CN)Cc2ccc(F)c(F)c2)sc1Cl (10 µM),0
14,O=c1ccc2ccc(O)c(O)c2o1 [Daphnetin] (10 µM),0
15,O=C(Nc1ccc(Cl)c(Cl)c1)Nc1ccc2nnsc2c1 (10 µM),0
16,O=C(O)c1cc(O)c2c(c1)[C@@H]([C@H]1c3cc(C(=O)O)cc(O)c3C(=O)c3c(O[C@@H]4O[C@H](CO)[C@@H](O)[C@H](O)[C@H]4O)cccc31)c1cccc(O[C@@H]3O[C@H](CO)[C@@H](O)[C@H](O)[C@H]3O)c1C2=O [Sennoside B] (2.5 µM),0
17,O=c1nc(N2CCOCC2)oc2c(-c3cccc4c3sc3ccccc34)cccc12 (10 µM),0
18,O=C(Nc1cccc(-c2nncn2C2CC2)c1)c1cc(-n2cnc(C3CC3)c2)ccn1 (10 µM),0
19,CSc1ccc(CN2CCCC(Nc3ccc4[nH]ncc4c3)C2)cc1 (stereo not drawn) [Rho-Kinase-IN-1] (10 µM),0
20,Oc1ccccc1C(=S)N1CCCC1 (10 µM),0
21,COC(=O)N[C@@H](C)CNc1nccc(-c2cn(C(C)C)nc2-c2cc(Cl)cc(NS(C)(=O)=O)c2F)n1 [Encorafenib] (10 µM),0
22,C=CS(=O)(=O)c1ccc(Nc2nc(OCC3CCCCC3)c3[nH]cnc3n2)cc1 (2.5 µM),0
23,O=c1[nH]ccc2cc(OC3CCNCC3)ccc12 (10 µM),0

# Exported with bars between the fields: two of the compounds above.
row | SMILES | number of time points
18 | O=C(Nc1cccc(-c2nncn2C2CC2)c1)c1cc(-n2cnc(C3CC3)c2)ccn1 (10 µM) | 0
19 | CSc1ccc(CN2CCCC(Nc3ccc4[nH]ncc4c3)C2)cc1 (stereo not drawn) [Rho-Kinase-IN-1] (10 µM) | 0
